From the supplement of paper PMC12067093, “Discovery and optimisation of a covalent ligand for TRIM25 and its application to targeted protein ubiquitination” (Chemical Science, 2025)
The other results are listed elsewhere or left out.

The chains behind the UniProt entries cited, without tags or fusion partners. Where a name states a change or a piece, a line headed by the entry shows the natural chain unless it says otherwise.
UniProt Q96CW5, whole entry, looked up: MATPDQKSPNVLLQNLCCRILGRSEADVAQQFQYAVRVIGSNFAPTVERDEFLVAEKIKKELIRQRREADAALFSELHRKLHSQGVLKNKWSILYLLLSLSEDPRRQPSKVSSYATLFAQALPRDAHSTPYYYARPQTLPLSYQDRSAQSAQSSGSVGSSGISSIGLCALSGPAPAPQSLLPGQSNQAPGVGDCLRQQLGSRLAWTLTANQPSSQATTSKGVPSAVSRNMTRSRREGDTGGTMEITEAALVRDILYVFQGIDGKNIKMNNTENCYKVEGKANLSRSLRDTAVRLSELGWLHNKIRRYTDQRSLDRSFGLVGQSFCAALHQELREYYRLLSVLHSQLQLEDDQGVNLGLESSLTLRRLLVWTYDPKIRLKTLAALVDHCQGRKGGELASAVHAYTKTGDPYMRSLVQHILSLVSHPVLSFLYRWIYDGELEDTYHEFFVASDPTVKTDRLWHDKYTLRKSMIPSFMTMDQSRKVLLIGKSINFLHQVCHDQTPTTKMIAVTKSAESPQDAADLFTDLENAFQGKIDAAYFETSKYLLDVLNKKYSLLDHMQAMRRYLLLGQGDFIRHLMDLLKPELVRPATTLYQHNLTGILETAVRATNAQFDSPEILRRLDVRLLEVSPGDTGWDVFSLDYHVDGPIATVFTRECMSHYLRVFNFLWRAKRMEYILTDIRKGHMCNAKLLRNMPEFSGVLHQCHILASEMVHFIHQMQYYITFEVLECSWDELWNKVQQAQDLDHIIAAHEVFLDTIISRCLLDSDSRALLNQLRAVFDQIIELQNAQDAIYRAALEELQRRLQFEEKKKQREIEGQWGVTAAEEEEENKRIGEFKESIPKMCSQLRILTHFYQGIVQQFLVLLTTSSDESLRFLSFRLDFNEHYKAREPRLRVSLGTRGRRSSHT
UniProt Q9BRA2: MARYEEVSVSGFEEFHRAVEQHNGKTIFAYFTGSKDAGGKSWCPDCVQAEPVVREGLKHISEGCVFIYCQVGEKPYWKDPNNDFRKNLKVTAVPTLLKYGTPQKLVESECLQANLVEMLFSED
UniProt Q16762: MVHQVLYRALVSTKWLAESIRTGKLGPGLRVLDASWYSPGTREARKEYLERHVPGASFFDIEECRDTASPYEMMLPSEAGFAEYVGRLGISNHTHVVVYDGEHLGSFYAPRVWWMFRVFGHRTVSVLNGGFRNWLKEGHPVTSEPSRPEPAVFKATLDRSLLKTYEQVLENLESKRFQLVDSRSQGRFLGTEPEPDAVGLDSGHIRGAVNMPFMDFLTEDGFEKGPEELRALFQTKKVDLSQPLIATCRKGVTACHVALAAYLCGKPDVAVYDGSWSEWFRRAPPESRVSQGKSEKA
UniProt Q9Y4A5, whole entry, looked up: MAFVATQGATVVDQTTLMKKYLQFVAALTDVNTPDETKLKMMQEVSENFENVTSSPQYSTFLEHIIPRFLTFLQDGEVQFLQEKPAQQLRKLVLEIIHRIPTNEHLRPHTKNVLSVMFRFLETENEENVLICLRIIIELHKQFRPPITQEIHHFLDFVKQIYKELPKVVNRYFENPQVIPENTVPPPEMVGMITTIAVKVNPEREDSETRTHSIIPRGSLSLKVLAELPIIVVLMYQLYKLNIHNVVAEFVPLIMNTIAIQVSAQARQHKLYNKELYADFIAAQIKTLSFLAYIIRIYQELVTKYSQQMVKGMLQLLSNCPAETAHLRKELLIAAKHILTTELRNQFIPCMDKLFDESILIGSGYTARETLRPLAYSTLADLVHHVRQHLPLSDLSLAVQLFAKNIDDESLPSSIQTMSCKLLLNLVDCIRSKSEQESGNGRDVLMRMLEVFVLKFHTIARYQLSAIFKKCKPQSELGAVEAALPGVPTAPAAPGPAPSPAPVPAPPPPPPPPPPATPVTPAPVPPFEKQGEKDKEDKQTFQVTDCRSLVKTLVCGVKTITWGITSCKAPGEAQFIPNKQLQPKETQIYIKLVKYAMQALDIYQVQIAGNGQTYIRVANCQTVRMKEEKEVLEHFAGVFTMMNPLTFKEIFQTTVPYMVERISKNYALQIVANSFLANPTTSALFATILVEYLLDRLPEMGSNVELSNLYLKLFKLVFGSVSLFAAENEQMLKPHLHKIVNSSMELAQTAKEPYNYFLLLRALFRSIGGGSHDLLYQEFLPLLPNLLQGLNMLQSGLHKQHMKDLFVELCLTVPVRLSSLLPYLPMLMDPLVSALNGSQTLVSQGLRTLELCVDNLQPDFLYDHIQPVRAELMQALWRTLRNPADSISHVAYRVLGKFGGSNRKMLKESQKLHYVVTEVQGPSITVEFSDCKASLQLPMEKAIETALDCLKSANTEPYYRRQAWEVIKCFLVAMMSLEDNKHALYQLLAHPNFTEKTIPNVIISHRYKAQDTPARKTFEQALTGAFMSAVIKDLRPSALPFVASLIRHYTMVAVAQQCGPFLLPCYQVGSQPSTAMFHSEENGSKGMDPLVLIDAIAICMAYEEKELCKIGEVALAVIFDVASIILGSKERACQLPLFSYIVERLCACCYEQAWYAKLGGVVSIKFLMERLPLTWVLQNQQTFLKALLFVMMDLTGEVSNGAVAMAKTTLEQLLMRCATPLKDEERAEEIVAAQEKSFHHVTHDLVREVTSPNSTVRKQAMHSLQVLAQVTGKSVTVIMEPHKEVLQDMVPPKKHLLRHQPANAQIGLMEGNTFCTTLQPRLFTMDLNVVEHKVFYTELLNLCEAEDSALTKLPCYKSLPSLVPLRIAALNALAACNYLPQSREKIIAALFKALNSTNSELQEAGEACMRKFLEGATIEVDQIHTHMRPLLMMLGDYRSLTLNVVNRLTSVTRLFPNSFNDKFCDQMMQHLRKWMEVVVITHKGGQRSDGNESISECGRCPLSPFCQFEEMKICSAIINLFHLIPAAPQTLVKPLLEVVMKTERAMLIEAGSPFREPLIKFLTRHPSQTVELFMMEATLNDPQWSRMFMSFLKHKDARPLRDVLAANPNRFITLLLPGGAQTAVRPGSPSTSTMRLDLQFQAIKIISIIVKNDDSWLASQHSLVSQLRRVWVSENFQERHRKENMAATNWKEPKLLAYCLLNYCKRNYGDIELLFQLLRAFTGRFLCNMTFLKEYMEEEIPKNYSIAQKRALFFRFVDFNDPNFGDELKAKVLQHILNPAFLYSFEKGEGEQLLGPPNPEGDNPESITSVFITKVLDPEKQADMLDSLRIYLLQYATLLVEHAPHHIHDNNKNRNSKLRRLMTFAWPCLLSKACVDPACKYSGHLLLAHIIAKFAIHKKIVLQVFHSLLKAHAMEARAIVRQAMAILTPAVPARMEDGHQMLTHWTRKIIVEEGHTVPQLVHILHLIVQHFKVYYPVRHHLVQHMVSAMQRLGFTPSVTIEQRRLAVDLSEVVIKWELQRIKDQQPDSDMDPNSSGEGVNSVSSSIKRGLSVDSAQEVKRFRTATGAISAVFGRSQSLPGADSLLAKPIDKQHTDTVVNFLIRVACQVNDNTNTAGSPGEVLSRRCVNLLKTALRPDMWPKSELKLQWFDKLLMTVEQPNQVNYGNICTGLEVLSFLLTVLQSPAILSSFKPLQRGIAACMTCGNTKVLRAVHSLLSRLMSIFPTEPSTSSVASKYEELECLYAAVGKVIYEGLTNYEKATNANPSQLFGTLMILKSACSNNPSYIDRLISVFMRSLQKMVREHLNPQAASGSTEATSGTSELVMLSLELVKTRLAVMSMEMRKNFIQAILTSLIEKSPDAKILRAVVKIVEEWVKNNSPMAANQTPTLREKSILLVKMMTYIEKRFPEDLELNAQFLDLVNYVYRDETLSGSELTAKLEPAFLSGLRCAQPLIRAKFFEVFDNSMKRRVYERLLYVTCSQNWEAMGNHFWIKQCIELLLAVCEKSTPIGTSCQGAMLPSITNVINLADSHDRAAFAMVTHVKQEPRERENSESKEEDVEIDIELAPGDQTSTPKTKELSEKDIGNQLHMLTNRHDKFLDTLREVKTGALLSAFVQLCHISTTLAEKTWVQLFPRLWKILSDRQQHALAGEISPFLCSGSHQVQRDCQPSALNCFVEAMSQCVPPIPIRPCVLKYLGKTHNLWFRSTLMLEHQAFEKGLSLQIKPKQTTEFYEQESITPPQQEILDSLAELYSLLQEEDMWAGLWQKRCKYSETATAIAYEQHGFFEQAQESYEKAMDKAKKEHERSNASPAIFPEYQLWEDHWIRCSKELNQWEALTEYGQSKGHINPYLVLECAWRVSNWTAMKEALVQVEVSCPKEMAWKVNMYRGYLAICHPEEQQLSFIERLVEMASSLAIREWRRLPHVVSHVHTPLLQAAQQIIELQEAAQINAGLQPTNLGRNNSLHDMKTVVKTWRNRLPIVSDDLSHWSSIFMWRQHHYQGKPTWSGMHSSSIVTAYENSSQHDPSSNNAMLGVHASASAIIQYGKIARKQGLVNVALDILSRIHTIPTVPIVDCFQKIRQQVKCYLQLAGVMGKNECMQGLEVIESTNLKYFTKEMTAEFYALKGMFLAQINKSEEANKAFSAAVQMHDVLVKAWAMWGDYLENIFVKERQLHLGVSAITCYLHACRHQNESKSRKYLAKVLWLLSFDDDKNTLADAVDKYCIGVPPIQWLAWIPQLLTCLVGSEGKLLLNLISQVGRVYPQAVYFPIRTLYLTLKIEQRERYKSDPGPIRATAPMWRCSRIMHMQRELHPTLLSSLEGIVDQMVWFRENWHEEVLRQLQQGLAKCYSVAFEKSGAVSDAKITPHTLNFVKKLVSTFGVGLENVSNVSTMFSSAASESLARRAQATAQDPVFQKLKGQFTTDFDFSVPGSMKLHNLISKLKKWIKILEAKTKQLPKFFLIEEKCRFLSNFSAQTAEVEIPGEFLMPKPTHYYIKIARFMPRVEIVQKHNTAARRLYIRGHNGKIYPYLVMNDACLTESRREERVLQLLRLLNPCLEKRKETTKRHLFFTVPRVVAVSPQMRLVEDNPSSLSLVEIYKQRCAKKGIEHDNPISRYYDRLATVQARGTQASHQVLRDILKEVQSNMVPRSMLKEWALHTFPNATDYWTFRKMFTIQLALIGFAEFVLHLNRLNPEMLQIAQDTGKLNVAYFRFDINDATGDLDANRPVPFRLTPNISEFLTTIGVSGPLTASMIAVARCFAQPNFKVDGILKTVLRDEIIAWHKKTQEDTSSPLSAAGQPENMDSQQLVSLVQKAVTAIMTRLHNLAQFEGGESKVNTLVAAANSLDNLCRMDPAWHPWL
UniProt Q9BSJ2, whole entry, looked up: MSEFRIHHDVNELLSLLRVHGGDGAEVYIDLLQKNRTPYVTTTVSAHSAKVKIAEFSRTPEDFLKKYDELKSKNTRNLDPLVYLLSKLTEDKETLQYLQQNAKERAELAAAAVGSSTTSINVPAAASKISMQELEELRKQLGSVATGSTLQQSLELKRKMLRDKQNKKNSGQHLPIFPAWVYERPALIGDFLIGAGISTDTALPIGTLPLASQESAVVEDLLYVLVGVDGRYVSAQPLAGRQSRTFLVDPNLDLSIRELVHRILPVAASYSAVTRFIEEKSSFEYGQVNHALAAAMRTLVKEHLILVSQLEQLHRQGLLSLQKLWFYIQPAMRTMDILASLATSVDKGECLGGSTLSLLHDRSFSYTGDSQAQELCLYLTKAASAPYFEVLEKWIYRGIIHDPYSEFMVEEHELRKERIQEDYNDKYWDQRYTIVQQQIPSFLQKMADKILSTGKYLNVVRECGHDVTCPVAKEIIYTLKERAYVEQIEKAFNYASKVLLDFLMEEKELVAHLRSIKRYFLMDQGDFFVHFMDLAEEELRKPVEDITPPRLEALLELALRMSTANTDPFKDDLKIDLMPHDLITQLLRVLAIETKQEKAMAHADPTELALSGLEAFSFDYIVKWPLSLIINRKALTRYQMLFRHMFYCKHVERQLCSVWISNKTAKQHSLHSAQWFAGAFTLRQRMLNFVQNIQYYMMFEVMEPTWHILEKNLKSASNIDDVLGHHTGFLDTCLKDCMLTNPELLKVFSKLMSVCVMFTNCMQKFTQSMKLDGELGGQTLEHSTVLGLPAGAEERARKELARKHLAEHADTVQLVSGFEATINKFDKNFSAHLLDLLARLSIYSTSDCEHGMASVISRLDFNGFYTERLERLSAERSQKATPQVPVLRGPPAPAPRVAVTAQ
UniProt Q9GZX9: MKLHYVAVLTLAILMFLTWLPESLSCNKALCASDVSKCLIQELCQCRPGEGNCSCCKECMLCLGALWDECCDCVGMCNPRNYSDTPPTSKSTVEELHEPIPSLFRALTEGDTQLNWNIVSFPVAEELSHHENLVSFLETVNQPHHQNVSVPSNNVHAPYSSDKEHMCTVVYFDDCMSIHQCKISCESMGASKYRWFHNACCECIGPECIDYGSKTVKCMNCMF

Compound: CC1Cc2ccccc2N1C(=O)C1CCCN(C1)C(=O)CCl (mixture of isomers) [TRIM25 ligand 11 (diastereomer mixture)]
Assay: probe-labelled cysteine peptide fold change vs DMSO (competition) (log2 fold change); higher = less target engagement (more negative = stronger competition)
Conditions: THP-1, incubation time: 4 h
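Also: competitive chemoproteomic profiling in live THP-1 cells with an iodoacetamide desthiobiotin (IA-DTB) probe, comparing probe-labelled peptide intensities in compound-treated cells against DMSO-treated controls.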

| Target | probe-labelled cysteine peptide fold change (10 µM) | probe-labelled cysteine peptide fold change (50 µM) |
| --- | --- | --- |
| TUFM_P49411_127_HYAHTDCPGHADYVK (UniProt P49411) | 0.102 | 0.0357 |
| TTI2_Q6NXR4_461_SALLQEATDCLILLDR (UniProt Q6NXR4) | -0.0974 | -0.0477 |
| TUBGCP3_Q96CW5_388_TLAALVDHCQGRK (UniProt Q96CW5) | -0.158 | -0.0586 |
| TSFM_P43897_149_FQLLVQQVALGTMMHCQTLK (UniProt P43897) | -0.117 | -0.0693 |
| TRPM7_Q96QT4_1411_FFVSTPSQPSCK (UniProt Q96QT4) | 0.0488 | -0.294 |
| TXNDC17_Q9BRA2_64_HISEGCVFIYCQVGEK (UniProt Q9BRA2) | 0.0734 | 0.0424 |
| TST_Q16762_248_KVDLSQPLIATCR (UniProt Q16762) | -0.038 | 0.0402 |
| TUT7_Q5VYS8_775_RGEHVVCGSTR (UniProt Q5VYS8) | -0.194 | -0.237 |
| TUT4_Q5TAX3_833_ELSQCNCIDLSK (UniProt Q5TAX3) | 0.0409 | -0.086 |
| TROVE2_P10155_305_MTANSVLEPGNSEVSLVCEK (UniProt P10155) | 0.162 | -0.201 |
| TUBB1_Q9H4B7_12_MREIVHIQIGQCGNQIGAK (UniProt Q9H4B7) | 0.489 | 0.674 |
| TRRAP_Q9Y4A5_620_VANCQTVR (UniProt Q9Y4A5) | 0.0422 | 0.0573 |
| TRMT2A_Q8IZ69_538_RLLYVSCNPR (UniProt Q8IZ69) | 0.0907 | 0.183 |
| TUBGCP3_Q96CW5_325_SFGLVGQSFCAALHQELR (UniProt Q96CW5) | 0.124 | -0.187 |
| TUBA4A_P68366_4_MRECISVHVGQAGVQMGNACWELYCLEHGIQPDGQMPSDK (UniProt P68366) | -0.126 | -0.437 |
| TSEN2_Q8NCE0_439_EMESPECMK (UniProt Q8NCE0) | -0.078 | -0.118 |
| TTC28_Q96AY4_816_CYEEQLDLGQK (UniProt Q96AY4) | 0.0873 | 0.289 |
| TSC2_P49815_519_KLATQLLVDLAEGCHTHHFNSLLDIIEK (UniProt P49815) | 0.161 | 0.0119 |
| TTC5_Q8N0Z6_304_KLQSMLGSLRPAHLGPCSDGHYQSASGQK (UniProt Q8N0Z6) | -0.103 | -0.145 |

Taken from above:
Entry for TUBGCP3_Q96CW5_388_TLAALVDHCQGRK (UniProt Q96CW5) under probe-labelled cysteine peptide fold change (10 µM): -0.158
Entry for TXNDC17_Q9BRA2_64_HISEGCVFIYCQVGEK (UniProt Q9BRA2) under probe-labelled cysteine peptide fold change (10 µM): 0.0734

Additional entries:

| Target | probe-labelled cysteine peptide fold change (10 µM) | probe-labelled cysteine peptide fold change (50 µM) |
| --- | --- | --- |
| TTC7A_Q9ULT0_199_LTEREEEVITCFER (UniProt Q9ULT0) | 0.0523 | -0.0121 |
| TSR1_Q2NL82_618_AKEELIFHCGFR (UniProt Q2NL82) | 0.00999 | 0.0707 |
| TUBGCP2_Q9BSJ2_848_LSIYSTSDCEHGMASVISR (UniProt Q9BSJ2) | 0.0713 | -0.034 |
| TUBGCP2_Q9BSJ2_656_QLCSVWISNK (UniProt Q9BSJ2) | 0.2 | 0.174 |
| TRPV2_Q9Y5S1_134_DGVNACILPLLQIDR (UniProt Q9Y5S1) | 0.0743 | -0.063 |
| TRMU_O75648_109_FSCFFHYAVDNLGADAIATGHYAR (UniProt O75648) | -0.0407 | -0.233 |
| TRRAP_Q9Y4A5_3849_VNTLVAAANSLDNLCR (UniProt Q9Y4A5) | -0.0825 | -0.125 |
| TWSG1_Q9GZX9_208_WFHNACCECIGPECIDYGSK (UniProt Q9GZX9) | 0.135 | 0.0758 |
| TUBA4A_P68366_54_TIGGGDDSFTTFFCETGAGK (UniProt P68366) | -0.0372 | -0.0118 |
| TRRAP_Q9Y4A5_1315_HQPANAQIGLMEGNTFCTTLQPR (UniProt Q9Y4A5) | 0.222 | 0.0269 |
| TRPM2_O94759_1250_HLLYPNCPVTR (UniProt O94759) | 0.0329 | 0.064 |
| TUBB6_Q9BUF5_127_KECEHCDCLQGFQLTHSLGGGTGSGMGTLLISK (UniProt Q9BUF5) | -0.175 | -0.198 |
| TTC7A_Q9ULT0_623_GPEEALVTCR (UniProt Q9ULT0) | -0.00803 | 0.131 |
| TTC4_O95801_63_ENPDLACLQSIIFDEERSPEEQAK (UniProt O95801) | -0.0205 | -0.00714 |
| TSR3_Q9UJK0_208_YAACGSPEEVLQAEQEFLANAK (UniProt Q9UJK0) | 0.114 | 0.13 |
| TUBGCP3_Q96CW5_18_SPNVLLQNLCCR (UniProt Q96CW5) | -0.0673 | 0.0368 |
| TRPM4_Q8TD43_759_QSGRPGCCGGR (UniProt Q8TD43) | 0.16 | -0.0447 |
| TTC37_Q6PGP7_715_ADVSCLWK (UniProt Q6PGP7) | 0.0501 | 0.0713 |
| TRMT61B_Q9BVS5_396_ISEVIVRDWLVCLAK (UniProt Q9BVS5) | -0.0508 | 0.0518 |
